Legend:
[1] = Odor description by a group of experts comprising 10 members; conditions: neat odorant
Protocol: The odor perception threshold, i.e. the ODT value (“odor detection threshold”), was determined using a dynamic olfactometer designated TO8 and a group of experts in accordance with the EN 13725 standard, in which an odorous air sample is diluted with clean air. The dilution is presented to the test persons (testers) for evaluation. The odor description was carried out by a group of experts comprising 10 members.

[2] = Olfactory comparison by perfumers of perfume oil with odorant solution versus with DPG only
Protocol: The perfume oil prepared was divided into two equal parts. To eliminate dilution effects, a first part of the perfume oil was mixed with 0.5% by weight of dipropylene glycol (DPG), based on the total amount of the first part of the perfume oil. To the second part of the perfume oil, 0.5 wt % 4H-3,1-benzoxathiin 10% DPG was added (i.e., a 10% solution of 4H-3,1-benzoxathiin in DPG), based on the total amount of the part of the perfume oil. The resulting compositions were olfactorily compared with each other.
The perfume oil prepared was divided into two equal parts. To eliminate dilution effects, a first part of the perfume oil was spiked with 0.1 wt. % dipropylene glycol (DPG), based on the total amount of the first part of the perfume oil. To the second part of the perfume oil, 0.1 wt. % 4H-3,1-benzoxathiin 10% DPG was added (i.e., a 10% solution of 4H-3,1-benzoxathiin in DPG), based on the total amount of the part of the perfume oil. The resulting compositions were olfactorily compared with each other.
The perfume oil prepared was divided into two equal parts. To eliminate dilution effects, a first part of the perfume oil was mixed with 2.5% by weight of dipropylene glycol (DPG), based on the total amount of the first part of the perfume oil. To the second part of the perfume oil, 2.5 wt. % 4H-3,1-benzoxathiin 10% DPG was added (i.e., a 10% solution of 4H-3,1-benzoxathiin in DPG), based on the total amount of the part of the perfume oil. The resulting compositions were olfactorily compared with each other.
The perfume oil prepared was divided into two equal parts. To exclude dilution effects, a first part of the perfume oil was mixed with 0.5% by weight of dipropylene glycol (DPG), based on the total amount of the first part of the perfume oil. To the second part of the perfume oil, 0.5% by weight of 2-methyl-4H-3,1-benzoxathiin 1% DPG was added (i.e., a 1% solution of 2-methyl-4H-3,1-benzoxathiin in DPG), based on the total amount of the part of the perfume oil. The resulting compositions were olfactorily compared with each other.
The perfume oil prepared was divided into two equal parts. To exclude dilution effects, a first part of the perfume oil was mixed with 1.5% by weight of dipropylene glycol (DPG), based on the total amount of the first part of the perfume oil. To the second part of the perfume oil, 1.5% by weight of 2-methyl-4H-3,1-benzoxathiin 1% DPG was added (i.e., a 1% solution of 2-methyl-4H-3,1-benzoxathiin in DPG), based on the total amount of the part of the perfume oil. The resulting compositions were olfactorily compared with each other.

In the case of `CC(C)(C)C1OCc2ccccc2S1` (stereo not shown) [2-tert-butyl-4H-3,1-benzoxathiin], the “Smell (odor description)” value [1] is reported as “Technical”.
In the case of `c1ccc2c(c1)COCS2` [4H-3,1-benzoxathiin], the “Smell (odor description)” value [1] is reported as “leather, smoke”, the “Smell (odor description)” value ([1]; listed as (i)) is reported as “leathery-smoky” and the “Smell (odor description)” value ([1]; listed as drawing 11) is reported as “Leather, smoke”. The “olfactory effect of addition to perfume oil composition II” value ([2]; 0.1% by weight of 10% solution in DPG, soap perfume oil) was “a strong floral complexity”, the “olfactory effect of addition to perfume oil composition I” value ([2]; 0.5% by weight of 10% solution in DPG, eau de toilette perfume oil) was “more volume and a soft leather note” and the “olfactory effect of addition to perfume oil composition III” value ([2]; 2.5% by weight of 10% solution in DPG, shampoo and shower gel perfume oil) was “a uniqueness and special character”.
For `CC1(C)OCc2ccccc2S1` [2,2-dimethyl-4H-3,1-benzoxathiin], the “Smell (odor description)” value [1] was “Technical”.
With `CC1OCc2ccccc2S1` (stereo not shown) [2-methyl-4H-3,1-benzoxathiin] the “Smell (odor description)” value [1] was “Indole-like, cresol-like, animal-like”, the “Smell (odor description)” value ([1]; listed as (ii)) was “indole-like, cresol-like, and animalic” and the “Smell (odor description)” value ([1]; listed as drawing 12) was “Indole-like, cresol-like, animal-like”. The “olfactory effect of addition to perfume oil composition IV” value ([2]; 0.5% by weight of 1% solution in DPG, fabric softener perfume oil) was “gains fullness and character” and the “olfactory effect of addition to perfume oil composition V” value ([2]; 1.5% by weight of 1% solution in DPG, eau de toilette perfume oil) was “a very animalic character, reminiscent of ylang-ylang and cresol”.
With `CC(C)C1OCc2ccccc2S1` (stereo not shown) [2-isopropyl-4H-3,1-benzoxathiin] the “Smell (odor description)” value [1] was “salicylate-like, medicinal, fruity, fresh, Dynascone-like”, the “Smell (odor description)” value ([1]; listed as (iii)) was “salicylate-like, medicinal, fruity, fresh, and Dynascone-like” and the “Smell (odor description)” value ([1]; listed as drawing 13) was “Salicylate-like, medicinal, fruity, fresh, Dynascone-like”.
